In patent publication US6340560B1, “Aminopolycarboxylic acid chelating agent, heavy metal chelate compound thereof, photographic additive and processing method” (Fuji Photo Film Co., Ltd., priority 1996, dated 2002):

Experiments:
[1] = Example 6: residual rates of developing agent and hydroxylamine in color developer after running process; details: chelating agent 0.01 mol/l in color developer; for Residual amount of hydroxylamine (pH 9.85) / Residual amount of main ingredient (pH 9.85): pH 9.85, after running; for Residual amount of hydroxylamine (pH 10.25) / Residual amount of main ingredient (pH 10.25): pH 10.25, after running
[2] = Example 6: precipitate in the color developing solution after running process; design: key: ◯: indicates that the solution contained no precipitate at all.; X: indicates that the larger the numeral, the larger the amount of the precipitate in the solution; details: color developing solution of pH 10.25 after running
[3] = Example 8: developing agent remaining in aged color developer with added ferric and calcium ion, HPLC; details: 1 g/l (HEDP 60%: 1.6 g/l), 5 ppm ferric ion, 150 ppm calcium ion, 38° C., 20 days
[4] = Example 8: precipitate in the color developing solution after ageing; design: key: ◯: indicates that no precipitate was formed at all.; indicates that the precipitate was formed. The larger the number of X, the more serious the precipitation; details: 1 g/l (HEDP 60%: 1.6 g/l); 5 ppm ferric ion, 150 ppm calcium ion; 38° C., 20 days
[5] = Example 1: residual silver in highest density part after running bleach-fixing process (NBlix), fluorescent X-ray analysis; details: chelating agent 0.17 mol/l with ferric nitrate in bleach-fixing bath, 110 sec, 45° C.
[6] = Example 1: bleaching fog, Dmin (G light) versus standard bleaching solution; details: relative to standard bleaching solution (Dmin 0.60)
[7] = Example 1: increase in stain during dark wet-heat storage of processed material; details: 60° C., 70% RH, 4 weeks
[8] = Example 2: residual silver after bleach-fixing (PBlix), fluorescent X-ray method; details: 35° C., chelating agent with ferric nitrate
[9] = Example 2: Blix decoloring, Dmax (R light) before and after reprocessing (PEDTA)
[10] = Example 5: filter clogging, ageing test of the bleach-fixing solution without photosensitive material; design: key: ◯: scarce clogging; Δ: partial clogging; ×: Substantially the whole filter was clogging, but the liquid could pass through the filter.; ××: the complete clogging, and the liquid extremely difficultly passes through the filter; details: 35° C., one week, without passing photosensitive material
[11] = Example 9: difference in B density between aged and fresh color developer; details: aged (38° C., 30 days) minus fresh developer; 0.01 mol chelating compound; 5 ppm ferric, 150 ppm calcium ion
[12] = Example 9: precipitation in the color developer after ageing, macroscopic; design: key: G represents no precipitate at all.; Larger the number of B's, the larger the amount of the precipitate; details: 38° C., 30 days; 0.01 mol chelating compound; 5 ppm ferric, 150 ppm calcium ion
[13] = Example 10: turbidity of fixing bath with added ferric ion after ageing; details: 3 g/l in fixing bath with ferric ion, 38° C., 30 days
[14] = Example 11: increase in magenta stain on ageing of material processed with stabilizer; details: 100 mg/l in stabilizer; 45° C., 70% RH, one week

SMILES	Residual amount of hydroxylamine (pH 9.85) [1]	Residual amount of main ingredient (pH 9.85) [1]	Residual amount of hydroxylamine (pH 10.25) [1]	Residual amount of main ingredient (pH 10.25) [1]	Precipitation [2]	Amount of residual silver [5]	Bleaching fog ΔDmin (G) [6]	Increase in stain ΔD (G) [7]	Quantity of residual silver ([8]; bleach-fixing time 20 sec)	Quantity of residual silver ([8]; bleach-fixing time 45 sec)	Blix decoloring ΔDmax (R) ([9]; bleach-fixing time 20 sec)	Blix decoloring ΔDmax (R) ([9]; bleach-fixing time 45 sec)	Clogging of filter [10]	ΔDmax [11]	Precipitate [12]	other results
O=C(O)CC(NCCNC(CC(=O)O)C(=O)O)C(=O)O (mixture of isomers) [Ethylenediaminedisuccinic acid, reference compound]	54%	62%	38%	41%	X	–	–	–	–	–	–	–	–	–	–	Residual amount of main ingredient (pH 9.85) [3]: 67%; Residual amount of main ingredient (pH 10.25) [3]: 55%; Precipitation [4]: X
CC(O)(P(=O)(O)O)P(=O)(O)O [1-Hydroxyethylidene-1,1-diphosphonic acid, reference compound]	68%	71%	54%	59%	◯	–	–	–	–	–	–	–	–	–	–	Residual amount of main ingredient (pH 9.85) [3]: 85%; Residual amount of main ingredient (pH 10.25) [3]: 72%
CN(CCCN(C)C(CC(=O)O)C(=O)O)C(CC(=O)O)C(=O)O (stereo not drawn) [Compound 3]	–	–	–	–	–	7.5 μm/cm^2	0.01	0.01	3.6 μg/cm^2	1.5 μg/cm^2	0.00	0.00	◯	−0.05	G	turbidity of the solution [13]: kept the transparency; increase in the magenta stain ΔDmin [14]: 0.13
CN(CCCCN(C)C(CC(=O)O)C(=O)O)C(CC(=O)O)C(=O)O (stereo not drawn) [Compound 5]	–	–	–	–	–	–	–	–	–	–	–	–	◯	–	–	–
CN(CCSCCN(C)C(CC(=O)O)C(=O)O)C(CC(=O)O)C(=O)O (stereo not drawn) [Compound 8]	–	–	–	–	–	6.8 μm/cm^2	0.01	0.01	3.5 μg/cm^2	1.5 μg/cm^2	0.00	0.00	◯	−0.07	G	turbidity of the solution [13]: kept the transparency
CN(CCN(C)C(CC(=O)O)C(=O)O)CCN(C)C(CC(=O)O)C(=O)O (stereo not drawn) [Compound 10]	74%	77%	70%	76%	◯	–	–	–	–	–	–	–	–	–	–	–
CN(CCN(C)C(CC(=O)[O-])C(=O)[O-])C(CC(=O)[O-])C(=O)[O-].[Na+].[Na+].[Na+].[Na+] (stereo not drawn) [Compound 12]	–	–	–	–	–	–	–	–	–	–	–	–	◯	–	–	–
CN(CCN(C)C(CC(=O)O)C(=O)O)C(CC(=O)O)C(=O)O.N.N.N.N (stereo not drawn) [Compound 15]	–	–	–	–	–	–	–	–	–	–	–	–	◯	–	–	–
CC(CN(C)C(CC(=O)O)C(=O)O)NC(CC(=O)O)C(=O)O (stereo not drawn) [Compound 23]	–	–	–	–	–	–	–	–	3.4 μg/cm^2	1.2 μg/cm^2	0.00	0.00	–	–	–	–
CN(CCOCCN(C)C(CC(=O)O)C(=O)O)C(CC(=O)O)C(=O)O (stereo not drawn) [Compound 26]	72%	75%	68%	73%	◯	6.7 μm/cm^2	0.01	0.02	3.5 μg/cm^2	1.6 μg/cm^2	0.00	0.00	◯	−0.05	G	turbidity of the solution [13]: kept the transparency; increase in the magenta stain ΔDmin [14]: 0.11
CN(CCN(C)[C@@H](CC(=O)O)C(=O)O)[C@@H](CC(=O)O)C(=O)O [Compound 32]	82%	83%	79%	79%	◯	5.1 μm/cm^2	0.00	0.01	3.2 μg/cm^2	–	0.00	–	◯	−0.05	G	turbidity of the solution [13]: kept the transparency
CN(CCCN(C)[C@@H](CC(=O)O)C(=O)O)[C@@H](CC(=O)O)C(=O)O [Compound 34]	72%	74%	68%	69%	◯	–	–	–	–	–	–	–	–	–	–	–
CCN(CCN(CC)C(CC(=O)O)C(=O)O)C(CC(=O)O)C(=O)O (stereo not drawn) [Compound 38]	–	–	–	–	–	8.1 μm/cm^2	0.01	0.02	–	–	–	–	–	–	–	–
CN(CCN(C)C(CCC(=O)O)C(=O)O)C(CCC(=O)O)C(=O)O (stereo not drawn) [Compound 43]	–	–	–	–	–	–	–	–	–	–	–	–	–	−0.05	G	turbidity of the solution [13]: kept the transparency
CN(CCN(C)[C@@H](CCC(=O)O)C(=O)O)[C@@H](CCC(=O)O)C(=O)O [Compound 45]	81%	82%	78%	78%	◯	5.5 μm/cm^2	0.00	0.01	–	–	–	–	◯	–	–	Residual amount of main ingredient (pH 9.85) [3]: 84%; Residual amount of main ingredient (pH 10.25) [3]: 80%
CN(CCN[C@@H](CCC(=O)O)C(=O)O)[C@@H](CCC(=O)O)C(=O)O [Compound 46]	–	–	–	–	–	–	–	–	3.1 μg/cm^2	1.0 μg/cm^2	0.00	0.00	–	–	–	–
O=C(O)CN(CCN(CC(=O)O)CC(=O)O)CCN(CC(=O)O)CC(=O)O [Diethylenetriaminepentaacetic acid, reference compound]	55%	60%	38%	42%	X	–	–	–	–	–	–	–	–	–	–	–
O=C(O)CN(CCN(CC(=O)O)CC(=O)O)CC(=O)O [Ethylenediaminetetraacetic acid, reference compound]	–	–	–	–	–	–	–	–	–	–	–	–	–	−0.4	G	Residual amount of main ingredient (pH 9.85) [3]: 71%; Residual amount of main ingredient (pH 10.25) [3]: 60%; Precipitation [4]: ◯
O=P(O)(O)CN(CCN(CP(=O)(O)O)CP(=O)(O)O)CP(=O)(O)O [Ethylenediaminetetramethylenephosphonic acid, reference compound]	–	–	–	–	–	–	–	–	–	–	–	–	–	−0.05	B	–
O=P1([O-])OP(=O)([O-])OP(=O)([O-])OP(=O)([O-])OP(=O)([O-])OP(=O)([O-])O1.[Na+].[Na+].[Na+].[Na+].[Na+].[Na+] [Sodium hexametaphosphate, reference compound]	–	–	–	–	–	–	–	–	–	–	–	–	–	–	–	Residual amount of main ingredient (pH 9.85) [3]: 82%; Residual amount of main ingredient (pH 10.25) [3]: 70%
O=C(O)CN(CCN(CC(O)O)CC(O)O)CC(=O)O [comp. compd. A, reference compound]	–	–	–	–	–	48.5 μm/cm^2	0.00	0.01	8.0 μg/cm^2	2.6 μg/cm^2	0.00	0.00	◯	–	–	–
O=C(O)CN(CCCN(CC(O)O)CC(O)O)CC(=O)O [comp. compd. B, reference compound]	–	–	–	–	–	39.7 μm/cm^2	0.08	0.08	20.2 μg/cm^2	10.6 μg/cm^2	0.00	0.00	–	–	–	–
CN(CNC(CC(=O)O)C(=O)O)C(CC(O)O)C(O)O (stereo not drawn) [comp. compd. C, reference compound]	–	–	–	–	–	25.2 μm/cm^2	0.00	0.01	4.1 μg/cm^2	1.8 μg/cm^2	0.15	0.19	Δ	–	–	–
